These are yes or no findings as the source states them, for the method shown. Binding seen in cells or lysates may run through a third protein. Some binding calls cover weakened binding; strength is not graded here. Where a sequence is shown, tags or fusion partners need not be part of it.
Target: T1, GST-14-3-3τ (human 14-3-3τ fused to glutathione S-transferase) (human) (UniProt P27348)
T1 sequence: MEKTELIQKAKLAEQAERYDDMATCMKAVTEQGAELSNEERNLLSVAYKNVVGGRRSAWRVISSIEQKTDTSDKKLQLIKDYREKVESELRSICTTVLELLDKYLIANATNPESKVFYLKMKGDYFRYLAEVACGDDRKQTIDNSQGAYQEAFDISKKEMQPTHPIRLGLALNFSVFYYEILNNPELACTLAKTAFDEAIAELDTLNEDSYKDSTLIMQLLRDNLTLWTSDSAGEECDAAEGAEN
Test: pull-down; GST-14-3-3 proteins bound to glutathione beads; HeLa cell lysates in NP-40 lysis buffer (150 mM NaCl, 10 mM HEPES pH 7.5, 0.2% NP-40, 50 mM NaF, 1 mM Na3VO4); Western blot with anti-human c-Raf-1; only the target purified

For “human c-Raf 1 (from UniProt P04049 1-648)”, the binding was “binds”.
